Source: PMC11923244
No constants are given. Whether binding was seen depends on the method and setting. In cells and extracts the contact can be indirect. Some entries that bind do so weakly or less than the wild type.

By UniProt entry, the sequences of proteins in these tests, tags left out. Residues count along the entry.
UniProt Q9QUN7, residues 25-784: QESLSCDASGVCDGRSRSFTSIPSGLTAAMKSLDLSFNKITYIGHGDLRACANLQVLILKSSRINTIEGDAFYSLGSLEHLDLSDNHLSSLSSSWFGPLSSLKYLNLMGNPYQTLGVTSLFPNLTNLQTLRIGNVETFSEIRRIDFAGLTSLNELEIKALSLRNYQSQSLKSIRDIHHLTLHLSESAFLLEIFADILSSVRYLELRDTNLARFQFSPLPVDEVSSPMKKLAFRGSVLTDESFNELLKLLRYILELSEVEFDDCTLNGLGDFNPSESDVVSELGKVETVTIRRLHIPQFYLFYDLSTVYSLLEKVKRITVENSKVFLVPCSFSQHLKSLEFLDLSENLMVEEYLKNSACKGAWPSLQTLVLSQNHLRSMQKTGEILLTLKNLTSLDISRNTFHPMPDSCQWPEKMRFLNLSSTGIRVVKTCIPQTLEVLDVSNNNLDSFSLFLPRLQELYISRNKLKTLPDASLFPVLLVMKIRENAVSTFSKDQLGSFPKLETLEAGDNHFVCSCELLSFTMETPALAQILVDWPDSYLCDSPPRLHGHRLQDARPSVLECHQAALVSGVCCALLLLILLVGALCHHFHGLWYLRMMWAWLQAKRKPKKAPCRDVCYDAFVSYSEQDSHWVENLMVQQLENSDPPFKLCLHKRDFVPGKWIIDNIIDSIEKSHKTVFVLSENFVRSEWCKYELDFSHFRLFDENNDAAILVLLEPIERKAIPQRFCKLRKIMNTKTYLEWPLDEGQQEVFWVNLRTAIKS

Biological target: FLAG-tagged TLR2 (toll-like receptor 2) (UniProt Q9QUN7)
Assay: co-IP; podocytes transfected with a FLAG-tagged plasmid; lysate incubated overnight at 4 °C with FLAG-tag magnetic beads (Beyotime kit P2181S; IgG beads as control), washed three times; Western blot for TLR2 and NAT10

- binding: binds
B1: N-acetyltransferase 10 (NAT10), endogenous in podocytes (enzyme, UniProt Q8K224 1-1024)
chain: MNRKKVDNRIRILIENGVAERQRSLFVVVGDRGKDQVVILHHMLSKATVKARPSVLWCYKKELGFSSHRKKRMRQLQKKIKSGTLNLKQDDPFELFVAATNIRYCYYNETHKILGNTFGMCVLQDFEALTPNLLARTVETVEGGGLVVILLRTMNSLKQLYTMTMDVHSRYRTEAHQDVVGRFNERFILSLASCKKCLVIDDQLDILPISSHVASIEALPPQAPDENLSPAALELLELKESLQDTQPVGVLVDCCKTLDQAKAVLKFIEGISEKTLRSTVALTAARGRGKSAALGLAIAGAVAFGYSNIFVTSPSPDNLHTLFEFVFKGFDALQYQEHLDYEIVQSLNPEFNKAVIRVNVFREHRQTIQYIHPADAVKLGQAELVVIDEAAAIPLPLVKSLLGPYLVFMASTINGYEGTGRSLSLKLIQQLRQQSAQSQVSTTAENKTTTTARLASARTLHEVSLQESIRYAPGDAVEKWLNDLLCLDCLNITRIVSGCPLPEACELYYVNRDTLFCYHKASEVFLQRLMALYVASHYKNSPNDLQMLSDAPAHHLFCLLPPVPPTQNALPEVLAVVQVCLEGEISRQSILNSLSRGKKASGDLIPWTVSEQFQDPDFGGLSGGRVVRIAVHPDYQGMGYGSRALQLLQMYYEGKFPCLEEKVLETPQEIRTVSSEAVSLLEEVITPRKDLPPLLLKLNERPAERLDYLGVSYGLTPRLLKFWKRAGFVPVYLRQTPNDLTGEHSCIMLKTLADEDEAEQGAWLAAFWKDFRRRFLALLSYQFSTFSPALSLNIIQNRNVAKSALPALGREHLEALFLPYDLKRLEMYSRNMVDYHLIMDLIPAISRLYFLNQLGDLSLSAAQSALLLGIGLQHKSVDQLEKEIELPSGQLMGLFNRIIRKVVKLFNDVQEKAIEEQMVAVKDVVMEPTMKTLSDDLDEAAKEFQEKHKKEVGKLKDMDLSQYVIRGDDEEWNEVLSKAGQNASIVSLKSDKKRKLETKQEPKQSKKLKKRDNNRKDMKLKRKK
